Assay results taken from the supplement of paper PMC10735217.
Counter-ions that a name gives are not always drawn. The list shows a part of the results. This data set is noisy: repeats of one test often differ as much as different tests do.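 Human kidney-derived cells stably carry a construct in which eight TEAD-binding elements drive luciferase, measured by luminescence in a drug-repurposing library screen. A hit is any compound whose signal exceeds the plate mean by more than five robust Z scores.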

Test system: HEK293A TEAD-LUC reporter
Test: TEAD-luciferase reporter activity (YAP activation), robust Z score vs plate; higher = stronger YAP/TEAD activation
Conditions: 24 h

| Structure (SMILES) | TEAD-luciferase reporter activity (compound concentration: 200 nM) | TEAD-luciferase reporter activity (compound concentration: 2 uM) | TEAD-luciferase reporter activity (compound concentration: 10 uM) |
| --- | --- | --- | --- |
| O=C(Nc1nc(-c2ccc(O)c(O)c2)c(-c2ccccc2)s1)c1ccc(O)c(O)c1 | inactive: 1.71 | inactive: 0.671 | inactive: -0.532 |
| CCCCc1nc(C)c(CC(=S)N(C)C)c(=O)n1Cc1ccc(-c2ccccc2-c2nnn[nH]2)cc1 [fimasartan] | inactive: -0.193 | inactive: -1.27 | inactive: 3.08 |
| CC(C)N1CCN(c2ccc(OCC3COC(Cn4cncn4)(c4ccc(Cl)cc4Cl)O3)cc2)CC1 (stereo not given) [terconazole] | inactive: -0.779 | inactive: -1.62 | inactive: -0.724 |
| CN1CCC(=C2c3ccccc3CC(=O)c3sccc32)CC1 [ketotifen, Melbourne Laboratories] |  | inactive: 0.873 |  |
| CN1CCC(=C2c3ccccc3CC(=O)c3sccc32)CC1 | inactive: -0.138 |  | active: 6.8 |
| CC1=C(C(=O)O)N2C(=O)[C@@H](NC(=O)Cc3ccc(C4=NCCCN4)cc3)[C@H]2SC1 | inactive: -0.194 | inactive: 0.317 | inactive: -0.543 |
| CC(=O)OCC(CCn1cnc2cnc(N)nc21)COC(=O)OC(C)C (stereo not given) | inactive: -0.878 | inactive: 1.94 | inactive: 1.39 |
| Cc1cc(CO)nc2cc3c(cc12)OC(C)(C)[C@@H](O)[C@@H]3NCCc1ccccc1 | inactive: 2 | inactive: -0.506 | inactive: -0.172 |
| CO/N=C(\C(=O)N[C@@H]1C(=O)N2C(C(=O)O)=C(COC(C)=O)CS[C@H]12)c1ccco1 | inactive: 0.152 | inactive: -0.276 | inactive: -0.711 |
| COc1ccc(CC(=O)N2Cc3ccccc3CC23CCCN(C(=O)CCN)C3)cc1 (stereo not given) | inactive: 0.968 |  | active: 6.98 |
| CC(O)C(CO)NC(=O)C1CSSCC(NC(=O)C(N)Cc2ccccc2)C(=O)NC(Cc2ccccc2)C(=O)NC(Cc2c[nH]c3ccccc23)C(=O)NC(CCCCN)C(=O)NC(C(C)O)C(=O)N1 (stereo not given) | inactive: 0.397 | inactive: -0.591 | inactive: -0.58 |
| CCCCC[C@](C)(O)C=CC1C(O)CC(O)C1CC=CCCCC(=O)O (stereo not given in full) [Carboprost Tromethamine] | inactive: -0.814 | inactive: -0.547 | inactive: 1.25 |
| O=C(NCc1ccncc1)C12CC3CC(C1)CC(c1ccc(Cl)cc1)(C3)C2 | inactive: -0.766 | inactive: -0.802 | inactive: -0.0218 |
| NCCc1c[nH]cn1 [histamine dihydrochloride, EpiCept] |  | inactive: -0.76 |  |
| NCCc1c[nH]cn1 [Histamine dihydrochloride] | inactive: -2 |  | inactive: -1.88 |
| CN1C(=O)Cc2cnc(N3CCCCC3)nc21 | inactive: -2.76 | inactive: -0.374 | inactive: -1.27 |
| CNCCCC1c2ccccc2C=Cc2ccccc21 [Protriptyline hydrochloride] | inactive: 3.98 | inactive: -1.07 | inactive: 3.15 |
| O=C(CCCNC(=S)Nc1ccc2c(c1)OCO2)NCCCOc1cccc(CN2CCCCC2)c1 | inactive: -2.24 | inactive: -1.35 | inactive: -0.0261 |

| Structure (SMILES) | TEAD-luciferase reporter activity (compound concentration: 200 nM) | TEAD-luciferase reporter activity (compound concentration: 2 uM) | TEAD-luciferase reporter activity (compound concentration: 10 uM) |
| --- | --- | --- | --- |
| COC(=O)CCC(=O)CN [2nd-gen methyl aminolevulinate,PhotoCure] | inactive: -0.355 |  | inactive: -0.155 |
| COC(=O)CCC(=O)CN [2nd-gen methyl aminolevulinate] |  | inactive: 0.198 |  |
| N=C(N)c1ccc(C(=O)N[C@@H](Cc2ccc(O)cc2)C(=O)N2CCC(OCC(=O)O)CC2)cc1 | inactive: 0.886 | inactive: 0.114 | inactive: 1.21 |
| NC(Cc1c[nH]c2ccccc12)C(=O)O (stereo not given) [tryptophan] |  | inactive: -0.432 |  |
| NC(Cc1c[nH]c2ccccc12)C(=O)O (stereo not given) [tryptophan, Indevus] | inactive: 0.76 |  | inactive: 1.07 |
| CCCOc1cc(N)ccc1C(=O)OCCN(CC)CC | inactive: -0.675 | inactive: -2.16 | inactive: -0.52 |
| O=Cc1cccc(N2CCN(C(=O)N3CCCC3)CC2=O)c1 | inactive: -0.82 |  | inactive: -0.491 |
| C=CCNC(=O)/C=C/c1ccccc1 | inactive: -1.02 | inactive: -2.13 | inactive: 3.21 |
| CC(=O)SC[C@@H](Cc1ccc2c(c1)OCO2)C(=O)NCC(=O)OCc1ccccc1 | inactive: -0.889 | inactive: -0.675 | inactive: -0.552 |
| CN[C@@H]1[C@@H](O[C@H]2O[C@H](CO)[C@@H](N)[C@H](O)[C@H]2O)O[C@H]2C[C@@H](N)[C@@H](O[C@H]3[C@H](O)[C@@H](O)[C@H](N)C[C@@H]3N)O[C@@H]2[C@@H]1O [Apramycin] | inactive: -1.5 |  | active: 5.62 |
| CC(C)CCC(O)[C@H](CC1CCCCC1)NC(=O)C(Cc1cnc[nH]1)N(C)C(=O)[C@H](Cc1ccccc1)OC(=O)N(C)CCN(C)C(=O)N1CCOCC1 (stereo not given in full) | inactive: 1.61 | inactive: 0.356 | inactive: -0.52 |
| O=C(O)C1CCC(CNCc2ccc(F)cc2)CC1 (stereo not given) | inactive: -1.1 | inactive: -0.161 | inactive: -0.63 |
| COC(=O)[C@H](Cc1cccc(C(=N)N)c1)[C@@H](C)NC(=O)c1ccc(-c2ccc(OC)c(OC)c2)cc1 | inactive: -2.1 | inactive: -1.07 | inactive: 2.41 |
| O=C(c1ccccc1)N1[C@@H]2CC[C@H]1C[C@H](CNC[C@H]1COc3ccc(Cl)cc3O1)C2 | inactive: -0.529 | inactive: -0.306 | inactive: 2.65 |
| CCCC1CC(C(=O)NC(C(C)O)C2OC(SC)C(O)C(O)C2O)N(C)C1 (stereo not given) [Lincomycin hydrochloride] | inactive: -2.31 | inactive: -1.47 | inactive: -2.19 |
| O=C(C1CCN(c2ccccc2[N+](=O)[O-])CC1)N1CCN(c2ccccc2O)CC1 | inactive: -0.683 | inactive: -1.21 | inactive: 1.93 |
| Cc1ccccc1CN1C(=O)C2=C(CCN(Cc3ccccc3)C2)N2CCN=C12 | inactive: 0.955 | inactive: -1.41 | inactive: 1.23 |

3 neighbouring records out of the list so far:

| Structure (SMILES) | TEAD-luciferase reporter activity (compound concentration: 200 nM) | TEAD-luciferase reporter activity (compound concentration: 2 uM) | TEAD-luciferase reporter activity (compound concentration: 10 uM) |
| --- | --- | --- | --- |
| O=Cc1cccc(N2CCN(C(=O)N3CCCC3)CC2=O)c1 | inactive: -0.82 |  | inactive: -0.491 |
| C=CCNC(=O)/C=C/c1ccccc1 | inactive: -1.02 | inactive: -2.13 | inactive: 3.21 |
| CC(=O)SC[C@@H](Cc1ccc2c(c1)OCO2)C(=O)NCC(=O)OCc1ccccc1 | inactive: -0.889 | inactive: -0.675 | inactive: -0.552 |
